The values below come from article PMC11024860.

Protein sequences, listed by entry. Tags and fused reporters are not part of them.
UniProt Q9UBN7: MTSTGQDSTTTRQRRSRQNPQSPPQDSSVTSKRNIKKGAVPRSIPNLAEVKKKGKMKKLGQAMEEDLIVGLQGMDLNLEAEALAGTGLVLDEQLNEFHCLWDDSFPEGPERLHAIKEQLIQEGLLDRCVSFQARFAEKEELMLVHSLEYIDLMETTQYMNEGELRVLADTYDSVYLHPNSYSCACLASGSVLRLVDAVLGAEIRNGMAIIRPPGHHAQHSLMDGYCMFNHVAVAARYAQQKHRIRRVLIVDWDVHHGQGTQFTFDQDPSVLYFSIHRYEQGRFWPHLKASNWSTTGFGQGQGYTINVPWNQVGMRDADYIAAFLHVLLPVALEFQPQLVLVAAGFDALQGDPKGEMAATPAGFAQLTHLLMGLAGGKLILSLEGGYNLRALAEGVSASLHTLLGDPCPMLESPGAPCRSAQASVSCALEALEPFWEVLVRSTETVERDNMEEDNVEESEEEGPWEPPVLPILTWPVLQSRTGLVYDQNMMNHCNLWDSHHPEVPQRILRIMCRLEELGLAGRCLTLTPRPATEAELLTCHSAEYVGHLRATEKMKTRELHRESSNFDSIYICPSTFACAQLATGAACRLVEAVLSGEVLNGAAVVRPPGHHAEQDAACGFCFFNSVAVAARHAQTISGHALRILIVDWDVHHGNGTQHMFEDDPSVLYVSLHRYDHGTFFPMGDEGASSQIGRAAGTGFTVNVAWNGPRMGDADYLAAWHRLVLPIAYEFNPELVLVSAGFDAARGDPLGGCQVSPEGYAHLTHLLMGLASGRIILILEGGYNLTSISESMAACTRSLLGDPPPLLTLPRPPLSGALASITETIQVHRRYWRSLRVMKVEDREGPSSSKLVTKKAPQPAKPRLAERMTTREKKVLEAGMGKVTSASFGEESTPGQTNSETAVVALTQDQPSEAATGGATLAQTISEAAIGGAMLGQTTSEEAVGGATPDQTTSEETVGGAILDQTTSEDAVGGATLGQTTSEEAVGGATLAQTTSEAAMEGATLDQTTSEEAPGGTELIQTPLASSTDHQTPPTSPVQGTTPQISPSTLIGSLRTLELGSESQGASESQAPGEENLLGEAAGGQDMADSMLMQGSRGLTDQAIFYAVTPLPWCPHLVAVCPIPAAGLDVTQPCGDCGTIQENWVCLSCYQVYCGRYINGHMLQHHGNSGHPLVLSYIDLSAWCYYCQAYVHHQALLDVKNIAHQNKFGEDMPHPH
UniProt Q61037: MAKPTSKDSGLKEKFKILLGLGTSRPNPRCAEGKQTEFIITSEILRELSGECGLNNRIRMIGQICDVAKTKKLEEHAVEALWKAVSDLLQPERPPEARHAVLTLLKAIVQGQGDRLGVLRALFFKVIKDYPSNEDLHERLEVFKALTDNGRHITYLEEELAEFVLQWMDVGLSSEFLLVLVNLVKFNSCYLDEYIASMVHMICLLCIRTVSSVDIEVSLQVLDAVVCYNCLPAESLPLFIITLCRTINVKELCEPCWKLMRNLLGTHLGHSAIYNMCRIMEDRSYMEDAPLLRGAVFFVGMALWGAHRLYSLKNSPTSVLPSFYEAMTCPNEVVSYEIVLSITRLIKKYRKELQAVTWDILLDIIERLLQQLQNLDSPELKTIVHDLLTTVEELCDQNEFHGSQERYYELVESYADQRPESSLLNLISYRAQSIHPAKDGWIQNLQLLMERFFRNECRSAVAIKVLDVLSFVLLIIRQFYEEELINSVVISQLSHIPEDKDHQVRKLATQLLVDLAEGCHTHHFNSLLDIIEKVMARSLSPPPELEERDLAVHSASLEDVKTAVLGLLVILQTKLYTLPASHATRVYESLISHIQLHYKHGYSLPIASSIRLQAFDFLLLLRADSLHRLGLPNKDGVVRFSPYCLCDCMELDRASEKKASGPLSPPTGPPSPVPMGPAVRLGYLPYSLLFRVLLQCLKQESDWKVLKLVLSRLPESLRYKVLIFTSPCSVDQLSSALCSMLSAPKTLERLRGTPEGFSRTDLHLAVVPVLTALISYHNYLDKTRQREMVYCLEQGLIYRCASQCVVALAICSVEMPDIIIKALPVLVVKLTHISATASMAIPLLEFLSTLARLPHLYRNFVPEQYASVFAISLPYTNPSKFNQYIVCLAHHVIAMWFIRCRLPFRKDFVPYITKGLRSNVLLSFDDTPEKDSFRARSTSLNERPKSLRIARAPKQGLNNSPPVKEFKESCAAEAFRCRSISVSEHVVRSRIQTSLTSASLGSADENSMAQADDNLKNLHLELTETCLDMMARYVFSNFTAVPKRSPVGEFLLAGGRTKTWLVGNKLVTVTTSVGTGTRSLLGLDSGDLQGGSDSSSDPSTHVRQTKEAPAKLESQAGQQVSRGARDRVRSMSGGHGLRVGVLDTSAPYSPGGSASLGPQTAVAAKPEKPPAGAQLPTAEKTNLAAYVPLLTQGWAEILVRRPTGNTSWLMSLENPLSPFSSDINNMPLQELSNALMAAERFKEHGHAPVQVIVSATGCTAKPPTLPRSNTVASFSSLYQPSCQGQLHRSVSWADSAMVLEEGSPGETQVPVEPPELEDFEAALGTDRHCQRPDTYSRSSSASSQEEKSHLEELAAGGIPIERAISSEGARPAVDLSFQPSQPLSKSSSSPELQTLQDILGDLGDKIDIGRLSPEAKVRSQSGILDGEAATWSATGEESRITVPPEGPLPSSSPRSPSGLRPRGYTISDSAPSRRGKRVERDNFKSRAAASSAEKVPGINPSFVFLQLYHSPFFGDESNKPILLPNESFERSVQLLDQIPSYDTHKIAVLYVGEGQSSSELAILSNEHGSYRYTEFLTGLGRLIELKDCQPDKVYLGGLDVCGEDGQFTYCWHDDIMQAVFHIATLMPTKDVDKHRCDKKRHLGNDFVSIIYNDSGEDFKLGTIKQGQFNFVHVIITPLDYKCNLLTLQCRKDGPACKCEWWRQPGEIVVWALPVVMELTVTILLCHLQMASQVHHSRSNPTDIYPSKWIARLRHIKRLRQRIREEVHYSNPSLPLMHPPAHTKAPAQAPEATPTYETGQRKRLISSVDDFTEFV

No constants are given. Whether binding was seen depends on the method and setting. In cells and extracts the contact can be indirect. Some results given as binding are weak or reduced against the parent protein; the word gives no strength. For some of these results: Tags and fused reporters may be left off the sequences shown.

Assay [1] deals with T1, histone deacetylase 6 (HDAC6), endogenous, mouse (mouse (endogenous in mouse ovary, kidney and liver)) (UniProt Q9Z2V5).
T1 sequence: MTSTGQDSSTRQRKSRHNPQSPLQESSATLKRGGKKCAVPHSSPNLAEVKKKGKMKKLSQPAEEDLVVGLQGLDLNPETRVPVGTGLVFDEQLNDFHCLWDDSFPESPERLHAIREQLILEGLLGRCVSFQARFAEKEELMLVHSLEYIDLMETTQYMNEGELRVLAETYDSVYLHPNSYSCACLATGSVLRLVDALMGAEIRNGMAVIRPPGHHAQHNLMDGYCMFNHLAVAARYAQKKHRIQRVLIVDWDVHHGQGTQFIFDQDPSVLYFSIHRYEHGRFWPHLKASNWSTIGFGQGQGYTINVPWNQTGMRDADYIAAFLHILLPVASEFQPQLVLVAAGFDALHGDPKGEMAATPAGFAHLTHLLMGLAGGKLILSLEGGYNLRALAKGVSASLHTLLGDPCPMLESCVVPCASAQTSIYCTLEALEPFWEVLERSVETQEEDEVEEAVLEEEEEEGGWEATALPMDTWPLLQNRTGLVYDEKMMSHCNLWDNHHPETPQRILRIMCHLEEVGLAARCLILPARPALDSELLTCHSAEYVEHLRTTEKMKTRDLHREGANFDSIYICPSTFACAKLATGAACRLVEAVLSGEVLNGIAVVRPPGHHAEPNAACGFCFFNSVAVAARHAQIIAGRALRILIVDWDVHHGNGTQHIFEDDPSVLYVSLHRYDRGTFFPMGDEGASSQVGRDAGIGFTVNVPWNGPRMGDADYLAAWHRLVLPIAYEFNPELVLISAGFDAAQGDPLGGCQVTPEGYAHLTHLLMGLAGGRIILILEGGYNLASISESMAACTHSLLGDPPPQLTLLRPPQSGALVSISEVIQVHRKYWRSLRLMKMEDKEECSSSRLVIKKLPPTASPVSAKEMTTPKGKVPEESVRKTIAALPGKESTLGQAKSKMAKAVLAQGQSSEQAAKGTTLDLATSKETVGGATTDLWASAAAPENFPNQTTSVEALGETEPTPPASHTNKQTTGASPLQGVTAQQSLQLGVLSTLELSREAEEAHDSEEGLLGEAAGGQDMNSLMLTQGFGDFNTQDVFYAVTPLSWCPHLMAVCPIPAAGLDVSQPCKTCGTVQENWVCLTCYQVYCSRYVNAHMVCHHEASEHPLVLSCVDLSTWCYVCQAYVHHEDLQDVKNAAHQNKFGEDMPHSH
As to the kind of experiment: co-IP; lysates of kidney and liver of 7 dpp wild-type and Hdac6-OE mice; precipitated with HDAC6 antibody, protein A/G magnetic beads, NP-40 washes, Western blot (Figure 7F-G). On the technique in general: A western blot detects proteins with antibodies after separation by electrophoresis.

The target of assay [2] is T2, mouse HDAC6 fused with a GFP tag (Hdac6-OE transgenic mouse) (mouse) (UniProt Q9Z2V5).
T2 sequence: T1 sequence
As to the kind of experiment: co-IP; lysates of kidney and liver of wild-type and Hdac6-OE mice; precipitated with GFP antibody, protein A/G magnetic beads, NP-40 washes, Western blot (Figure 7H-I).

The target in assay [3] is histone deacetylase 6 (HDAC6), endogenous, KGN cells (human (endogenous in KGN)) (UniProt Q9UBN7). As to the kind of experiment: co-IP; KGN cells; 'Co-IP analysis of HDAC6 and NGF'; panels in Figure S12E-G, precipitating antibody of each panel not shown.

Take “TSC2, endogenous, mouse (from UniProt Q61037 1-1814)”: in assay [1], the binding entry was “binds”.

B1: brain-derived neurotrophic factor (BDNF), endogenous, mouse (ligand, UniProt P21237 19-249)
chain: APMKEVNVHGQGNLAYPGVRTHGTLESVNGPRAGSRGLTTTSLADTFEHVIEELLDEDQKVRPNEENHKDADLYTSRVMLSSQVPLEPPLLFLLEEYKNYLDAANMSMRVRRHSDPARRGELSVCDSISEWVTAADKKTAVDMSGGTVTVLEKVPVSKGQLKQYFYETKCNPMGYTKEGCRGIDKRHWNSQCRTTQSYVRALTMDSKKRIGWRFIRIDTSCVCTLTIKRGR
With B1, the binding entry in assay [1] and in assay [2] was “binds” throughout.

B2: brain-derived neurotrophic factor (BDNF), endogenous, KGN cells (ligand, UniProt P23560 19-247)
chain: APMKEANIRGQGGLAYPGVRTHGTLESVNGPKAGSRGLTSLADTFEHVIEELLDEDQKVRPNEENNKDADLYTSRVMLSSQVPLEPPLLFLLEEYKNYLDAANMSMRVRRHSDPARRGELSVCDSISEWVTAADKKTAVDMSGGTVTVLEKVPVSKGQLKQYFYETKCNPMGYTKEGCRGIDKRHWNSQCRTTQSYVRALTMDSKKRIGWRFIRIDTSCVCTLTIKRGR
For the molecule B2, the binding entry in assay [3] is given as “binds”.
